According to PubChem BioAssay AID2685 (National Center for Advancing Translational Sciences (NCATS), 2010):
This is one part of the list. These are further read-outs of the screen, such as a control signal, another cell line or another target. No call is given for them. The list favours compounds with an active or inconclusive main result. Potencies come from curve fits of mixed quality, noted in brackets.

Test: qHTS Assay for Lipid Storage Modulators in Drosophila S3 Cells;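 on cell number change: cells counted by Cell Tracker Red CMTPX staining in the red channel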
Details: BODIPY lipid droplet fluorescence, 18-24 h; for cell number change: measured here: cell count max response, cells fed with added oleic acid
How it was run: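 Drosophila S3 cells loaded with oleic acid (400 uM, as added) and compounds at several concentrations; lipid droplets imaged by 488-nm laser-scanning cytometry, 500–530 nm intensity and object ratio to cell channel. Percent activity normalized to 20 uM Triacsin C.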

[1] = measured here: lipid fluorescence (Fed channel) AC50, cells fed with added oleic acid
[2] = measured here: cell number channel AC50, cells fed with added oleic acid

Row | Compound | cell number change [%] | AC50 [1] | AC50 [2]
1 | O=C(c1ccccc1)n1nnc2ccccc21 | 1.03 | 6.51 µM [falling, partial curve, poor fit] | 
2 | CCOc1cc(CO)ccc1OCC(=O)N1CCCCC1 | -34 | 0.651 µM [falling, partial curve, poor fit] | 0.731 µM [falling, full curve]
3 | CC(/C=N/NC(=O)Cc1cccs1)=C\c1ccccc1 | -58.9 | 3.66 µM [falling, full curve] | 3.66 µM [falling, full curve]
4 | COc1ccccc1CNC(=O)C/C(C)=N/NC(=O)COc1ccc(C)cc1Br | 9.3 |  | 1.84 µM [rising, single point]
5 | Cc1cc(OCC(=O)C(C)(C)C)c2c(-c3ccccc3)cc(=O)oc2c1 |  | 2.06 µM [rising, partial curve] | 
6 | Cc1nn(C)c(C(=O)Nc2ccc(Cn3cccn3)cc2)c1[N+](=O)[O-] | 41.7 |  | 5.17 µM [rising, full curve]
7 | CN(C)S(=O)(=O)c1ccc(C(=O)Oc2cc(=O)[nH]c3ccccc23)cc1 | -34.2 | 3.66 µM [falling, full curve] | 32.6 µM [falling, single point]
8 | C=CCn1c(SCC(=O)N2CCCC2)nc2scc(-c3cccs3)c2c1=O | -2.56 | 0.0731 µM [falling, full curve, poor fit] | 
9 | Cc1ccc(NC(=O)CSc2sc3c(O)cc(=O)[nH]c3c2C#N)c(F)c1 | 9.13 | 29.1 µM [falling, partial curve, poor fit] | 
10 | COc1ccccc1Nc1ncccc1C(=O)O | 0.91 | 0.461 µM [falling, single point] | 
11 | COc1cccc(-c2cccc(NC(=O)C3CCN(CC4CCOC4)CC3)c2)c1 (configuration not stated) |  | 18.4 µM [falling, partial curve] | 
12 | Cc1c(C(=O)N2CCOCC2)c(S(=O)(=O)Nc2ccc(Br)cc2F)c(C)n1C | 29.7 | 6.51 µM [falling, single point] | 
13 | CCOC(=O)C1=C(CC)Nc2ccccc2N=C1NC(=O)c1cc(S(=O)(=O)N(C)C)ccc1Cl |  | 0.58 µM [falling, single point] | 
14 | CC(O)CNc1nc2c(c(=O)n(Cc3ccc(Cl)cc3)c(=O)n2C)n1C (configuration not stated) | -22 |  | 
15 | C[N+](C)(CCOc1ccccc1)Cc1ccccc1 (tested in a mixture with another compound) | 0.97 | 6.51 µM [rising, single point] | 1.84 µM [rising, partial curve]
16 | O=C(COC(=O)c1c(Cl)ccc(Cl)c1Cl)NC1CCS(=O)(=O)C1 (configuration not stated) | -10.1 |  | 
17 | Cc1ccc(-c2nc(CS(=O)CC(=O)NC3CCCC(C)C3C)c(C)o2)cc1 (configuration not stated) | -8.17 | 32.6 µM [falling, single point] | 
18 | CCCn1nnc(NC(=O)COc2ccc(CC)cc2)n1 | 18.7 | 29.1 µM [rising, partial curve, poor fit] | 
19 | OC(COC(c1ccc(F)cc1)c1ccc(F)cc1)CN1CCCC1 (configuration not stated) | -41.6 | 29.1 µM [falling, single point] | 18.4 µM [falling, single point]
20 | Fc1ccc(NC(=S)Nc2cccc3cnccc23)cc1 | 58.9 | 2.06 µM [rising, partial curve, poor fit] | 

Row | Compound | cell number change [%] | AC50 [1] | AC50 [2]
21 | Nc1nc(CSc2nc3ccccc3s2)nc(N2CCCCC2)n1 | 70.9 | 5.8 µM [rising, full curve] | 4.11 µM [rising, full curve]
22 | CSC1=C(C#N)C(c2ccncc2)C(C(=O)Nc2ccccc2)=C(C)N1 (configuration not stated) | 33.3 | 29.1 µM [rising, partial curve, poor fit] | 29.1 µM [rising, single point]
23 | CN1C(=O)NC(NC(=O)C2CCCCC2)(C(F)(F)F)C1=O (configuration not stated) | -22.7 | 0.651 µM [falling, full curve, poor fit] | 0.92 µM [falling, full curve, poor fit]
24 | CCN(CC)c1ccc(/C=N/N2CCOCC2)c(O)c1 | -60.6 | 29.1 µM [falling, single point] | 29.1 µM [falling, partial curve, poor fit]
25 | CCCc1ncc(C(O)c2ccc(OC)cc2)n1C (configuration not stated) | 4.6 |  | 
26 | O=C(CCCCCl)Nc1c2c(nc3ccccc13)CCC2 | -7.02 | 29.1 µM [falling, single point] | 
27 | CCOC(=O)C1=C(CSCc2ccccc2)NC(=O)NC1c1cc(C)ccc1C (configuration not stated) | 34.6 | 16.4 µM [rising, partial curve] | 5.17 µM [rising, partial curve]
28 | CCOc1cc(/C=C2/C(=O)ON=C2C)ccc1O | -18.3 | 0.461 µM [falling, partial curve] | 
29 | O=C(NCCN1CCOCC1)c1cc2ccccc2o1 | -1.82 | 0.731 µM [falling, full curve] | 0.92 µM [falling, full curve, poor fit]
30 | Cc1ccc(C(=O)CCC2CCCCC2=O)cc1 (configuration not stated) | -14.4 | 11.6 µM [rising, single point] | 
31 | CCOc1ccc(N(C)S(=O)(=O)c2ccc(C)c(C(=O)OCC(=O)c3c[nH]c4ccccc34)c2)cc1 | 56.4 |  | 29.1 µM [rising, single point]
32 | Cc1cccc(-n2c(C)cc(C=C(C#N)C#N)c2C)c1 | 48.2 |  | 29.1 µM [rising, single point]
33 | Cc1cc(OC(C)C(=O)Nc2ccc(S(=O)(=O)Nc3onc(C)c3C)cc2)cc(C)c1Cl (configuration not stated) | -0.99 | 29.1 µM [falling, partial curve, poor fit] | 
34 | CC1Cc2nc(SCC(=O)Nc3ccc4c(c3)OCO4)n(Cc3ccccc3)c(=O)c2S1 (configuration not stated) |  | 1.16 µM [rising, full curve] | 
35 | COc1ccccc1CNC(=O)CCN=C1NS(=O)(=O)c2ccccc21 | -43.6 | 0.731 µM [falling, single point] | 13 µM [falling, partial curve]
36 | COc1ccc(N2C(=O)CCC2(C#N)c2ccc(Br)cc2)cc1 (configuration not stated) | 18.3 |  | 
37 | COc1ccc(C(CNC(=O)CSc2ccc(Br)cc2C)N2CCOCC2)cc1 (configuration not stated) | 35.3 |  | 0.461 µM [rising, full curve]
38 | COc1ccc(C(CCNCc2ccc(N(C)C)cc2)C(C)C)cc1 (configuration not stated) | -62.5 | 2.06 µM [rising, single point] | 18.4 µM [falling, single point]
39 | COc1cc(/C=N/N=C2\CC3CCC2(C)C3(C)C)ccc1O (configuration not stated) | -49.4 | 20.6 µM [falling, single point] | 13 µM [falling, partial curve, poor fit]
40 | CC(C)C(NC(=O)CCNC(=O)c1ccccc1Cl)c1nc2ccccc2[nH]1 (configuration not stated) | 13.4 | 5.17 µM [rising, full curve] | 

Fetched by structure from the list above (2):
Row | Compound | cell number change [%] | AC50 [1] | AC50 [2]
6 | Cc1nn(C)c(C(=O)Nc2ccc(Cn3cccn3)cc2)c1[N+](=O)[O-] | 41.7 |  | 5.17 µM [rising, full curve]
35 | COc1ccccc1CNC(=O)CCN=C1NS(=O)(=O)c2ccccc21 | -43.6 | 0.731 µM [falling, single point] | 13 µM [falling, partial curve]

Next part:

Row | Compound | cell number change [%] | AC50 [1] | AC50 [2]
41 | CC(C)(C)C1CCc2c(sc(NC(=O)c3cc(C4CC4)on3)c2C#N)C1 (configuration not stated) | -3.4 |  | 
42 | O=[N+]([O-])c1ccccc1Oc1ccc(Cl)c2cccnc12 | 35.2 |  | 
43 | CCOc1cc2nc(-c3ccc(OC)c(OC)c3)nc(N3CC(C)OC(C)C3)c2cc1OC (configuration not stated) | -25.7 |  | 
44 | CN(C)Cc1c(O)ccc2occ(C(=O)c3ccccc3)c12 | -3.79 | 29.1 µM [falling, single point] | 
45 | O=C(Nc1ccccc1Cl)c1cccc(NC(=O)c2cccs2)c1 | -18.8 | 29.1 µM [falling, single point] | 
46 | CC(C)N(Cc1ccccc1)C(=O)CCS(=O)(=O)c1ccc2c(c1)oc(=O)n2C | 7.76 | 3.26 µM [falling, full curve, poor fit] | 
47 | O=C(O)c1ccc2c(c1)S(=O)(=O)c1cc(Cl)ccc1C2=O | -45.1 | 29.1 µM [falling, single point] | 29.1 µM [falling, single point]
48 | COc1ccc(CCNC(=O)c2ccc(-c3cccc([N+](=O)[O-])c3)o2)cc1OC | -46.5 |  | 18.4 µM [falling, single point]
49 | Cc1ccc2c(c1)N(CC(=O)N1CCCCC1c1cccnc1)C(=O)CO2 (configuration not stated) | 12.1 | 0.092 µM [rising, full curve, poor fit] | 
50 | O=C1C2C(c3ccccc3)C=CC(c3ccccc3)C2C(=O)N1CCCO (configuration not stated) | -6.75 |  | 
51 | COc1ccccc1N1CCN(C(c2cccs2)C(C)NC(=O)C(=O)N2CCOCC2)CC1 (configuration not stated) | 25.6 | 29.1 µM [rising, single point] | 
52 | Cc1cc(C)cc(N(C(C)C(=O)NCc2ccc3c(c2)OCO3)S(C)(=O)=O)c1 (configuration not stated) | -60.8 |  | 
53 | O=C(N/N=C/c1cccc2ccccc12)c1cc(C2CC2)[nH]n1 | -17.7 | 29.1 µM [falling, single point] | 
54 | O=C(CN1CCN(Cc2ccccc2Cl)C1=O)NCC1CCCO1 (configuration not stated) | -14.7 | 0.116 µM [falling, full curve, poor fit] | 
55 | O=C(Oc1cccc(F)c1)c1ccc2c(=O)n3c(nc2c1)CCC3 |  | 2.06 µM [falling, single point] | 
56 | CCN(CC)C(=O)CSc1nnc(-c2ccccn2)n1Cc1ccccc1 | 14.4 | 0.164 µM [rising, partial curve, poor fit] | 
57 | Cc1cc(/N=C/C=C2\N(C)c3ccccc3C2(C)C)n(CCC#N)n1 | -9.02 | 1.84 µM [rising, partial curve, poor fit] | 
58 | CCCCCCCOc1ccc(OC(=O)c2ccncc2)cc1 | -72.4 |  | 29.1 µM [falling, single point]

Some values from the entries so far:
Under cell number change [%], COc1ccc(CCNC(=O)c2ccc(-c3cccc([N+](=O)[O-])c3)o2)cc1OC shows -46.5
Under cell number change [%], O=[N+]([O-])c1ccccc1Oc1ccc(Cl)c2cccnc12 shows 35.2
Under cell number change [%], Cc1cc(/N=C/C=C2\N(C)c3ccccc3C2(C)C)n(CCC#N)n1 shows -9.02
Under cell number change [%], CN(C)Cc1c(O)ccc2occ(C(=O)c3ccccc3)c12 shows -3.79
